PubChem BioAssay AID1259308, NCATS – 2017
Here is a random part of about 59,000 reagents. About 1,510 of all reagents (2.6%) count as active. 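Calls use total luciferase alone and ignore viability, so some active siRNAs may act by altering cell number.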 The numbers tell different reagents against one gene apart. Further read-outs or replicates are left out here. No sequences are given here.

Screen: 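Candidate targets for better recombinant protein yield in mammalian cells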 (primary screen)
Cell system: human HEK293 embryonic kidney cells stably expressing firefly luciferase (HEK-CMV-Luc2-Hygro)
Knock-down reagent: single siRNA against human genes, 0.8 pmol siRNA per well
Timing: 72 h
Measured: 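Luciferase light (ONE-Glo) measured on one replicate plate set and viability (CellTiter-Glo) on the other, scaled to a negative control siRNA, with robust z-scores and luciferase per cell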
Direction: total luciferase, z-score: higher = more reporter protein produced
Active means: 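Active when the median/MAD z-score for overall luciferase is greater than 3; a gene was taken forward for validation with new siRNAs if at least two of its three siRNAs passed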
Calls: active = raised luciferase; inactive = no rise

With knock-down of LANCL1 (LanC like glutathione S-transferase 1) #1, the screen gave total luciferase, z-score 0.251; inactive. Knock-down of LANCL1 (LanC like glutathione S-transferase 1) #2 came out at: total luciferase, z-score -0.923; inactive. Depletion of LANCL1 (LanC like glutathione S-transferase 1) #3 gave: total luciferase, z-score 0.781; inactive. Knock-down of ARID5A (AT-rich interaction domain 5A) #1 gave: total luciferase, z-score -2; inactive. ARID5A (AT-rich interaction domain 5A) #2 scored total luciferase, z-score -0.793; inactive. ARID5A (AT-rich interaction domain 5A) #3 showed total luciferase, z-score 0.707; inactive.

Against ATP6V1H (ATPase H+ transporting V1 subunit H) #1, the entry reads total luciferase, z-score -0.481; inactive. Depletion of ATP6V1H (ATPase H+ transporting V1 subunit H) #2 came out at: total luciferase, z-score 0.578; inactive. After knock-down of ATP6V1H (ATPase H+ transporting V1 subunit H) #3, the record shows total luciferase, z-score -1.12; inactive. Against LDAF1 (lipid droplet assembly factor 1) #1 the deposit lists total luciferase, z-score 0.771; inactive. Knock-down of LDAF1 (lipid droplet assembly factor 1) #2 came out at: total luciferase, z-score -1.2; inactive. After knock-down of LDAF1 (lipid droplet assembly factor 1) #3, the screen gave total luciferase, z-score 0.0427; inactive.

For RMI1 (RecQ mediated genome instability 1) #1, the values are total luciferase, z-score -1.61; inactive. Silencing of RMI1 (RecQ mediated genome instability 1) #2 resulted in: total luciferase, z-score -0.216; inactive. Silencing of RMI1 (RecQ mediated genome instability 1) #3 resulted in: total luciferase, z-score -1.97; inactive. Knock-down of TTC1 (tetratricopeptide repeat domain 1) #1 gave: total luciferase, z-score -1.05; inactive. Depletion of TTC1 (tetratricopeptide repeat domain 1) #2 came out at: total luciferase, z-score 2.26; inactive. Knock-down of TTC1 (tetratricopeptide repeat domain 1) #3 resulted in: total luciferase, z-score 0.0317; inactive.

A few values from the entries so far.
Result for ARID5A (AT-rich interaction domain 5A) #2 in “total luciferase, z-score”: -0.793
Entry of LDAF1 (lipid droplet assembly factor 1) #1 in “outcome”: inactive
For “total luciferase, z-score”, ATP6V1H (ATPase H+ transporting V1 subunit H) #2 reads 0.578
Under “total luciferase, z-score”, LANCL1 (LanC like glutathione S-transferase 1) #3 shows 0.781
Under “outcome”, LDAF1 (lipid droplet assembly factor 1) #2 reads inactive
Entry of ATP6V1H (ATPase H+ transporting V1 subunit H) #3 in “total luciferase, z-score”: -1.12

Additional entries follow:
After knock-down of RPS15A (ribosomal protein S15a) #1, the screen gave total luciferase, z-score -2.49; inactive. Depletion of RPS15A (ribosomal protein S15a) #2 gave: total luciferase, z-score -2.71; inactive. After knock-down of RPS15A (ribosomal protein S15a) #3 the results were total luciferase, z-score -2.46; inactive. ZFYVE19 (zinc finger FYVE-type containing 19) #1 scored total luciferase, z-score -0.293; inactive. ZFYVE19 (zinc finger FYVE-type containing 19) #2 scored total luciferase, z-score 2.28; inactive. ZFYVE19 (zinc finger FYVE-type containing 19) #3 gave total luciferase, z-score 1.32; inactive.

Silencing of ZNF225 (zinc finger protein 225) #1 gave: total luciferase, z-score 2.41; inactive. Against ZNF225 (zinc finger protein 225) #2 the deposit lists total luciferase, z-score 2.8; inactive. ZNF225 (zinc finger protein 225) #3 showed total luciferase, z-score -0.267; inactive. For DPH7 (diphthamide biosynthesis 7) #1 the deposit lists total luciferase, z-score -0.28; inactive. After knock-down of DPH7 (diphthamide biosynthesis 7) #2 the results were total luciferase, z-score -0.61; inactive. DPH7 (diphthamide biosynthesis 7) #3 showed total luciferase, z-score 0.618; inactive.

After knock-down of SUN2 (Sad1 and UNC84 domain containing 2) #1, the record shows total luciferase, z-score 1.82; inactive. Depletion of SUN2 (Sad1 and UNC84 domain containing 2) #2 came out at: total luciferase, z-score -0.488; inactive. Silencing of SUN2 (Sad1 and UNC84 domain containing 2) #3 gave: total luciferase, z-score -0.0637; inactive. Against GTSF1L (gametocyte specific factor 1 like) #1, the entry reads total luciferase, z-score -1.03; inactive. GTSF1L (gametocyte specific factor 1 like) #2 gave total luciferase, z-score 1.28; inactive. For GTSF1L (gametocyte specific factor 1 like) #3 the deposit lists total luciferase, z-score 1.16; inactive.

TCF3 (transcription factor 3) #1 showed total luciferase, z-score -2.92; inactive. For TCF3 (transcription factor 3) #2 the deposit lists total luciferase, z-score 2.67; inactive. Against TCF3 (transcription factor 3) #3, the values are total luciferase, z-score -0.418; inactive. With knock-down of KIF13A (kinesin family member 13A) #1 the results were total luciferase, z-score -0.532; inactive. Knock-down of KIF13A (kinesin family member 13A) #2 resulted in: total luciferase, z-score -0.0356; inactive. With knock-down of KIF13A (kinesin family member 13A) #3 the results were total luciferase, z-score -0.0656; inactive.
